The record followed here is article doi:10.1101/163998.

Amino acid sequences for entries named in this document (tags omitted).
UniProt Q13568: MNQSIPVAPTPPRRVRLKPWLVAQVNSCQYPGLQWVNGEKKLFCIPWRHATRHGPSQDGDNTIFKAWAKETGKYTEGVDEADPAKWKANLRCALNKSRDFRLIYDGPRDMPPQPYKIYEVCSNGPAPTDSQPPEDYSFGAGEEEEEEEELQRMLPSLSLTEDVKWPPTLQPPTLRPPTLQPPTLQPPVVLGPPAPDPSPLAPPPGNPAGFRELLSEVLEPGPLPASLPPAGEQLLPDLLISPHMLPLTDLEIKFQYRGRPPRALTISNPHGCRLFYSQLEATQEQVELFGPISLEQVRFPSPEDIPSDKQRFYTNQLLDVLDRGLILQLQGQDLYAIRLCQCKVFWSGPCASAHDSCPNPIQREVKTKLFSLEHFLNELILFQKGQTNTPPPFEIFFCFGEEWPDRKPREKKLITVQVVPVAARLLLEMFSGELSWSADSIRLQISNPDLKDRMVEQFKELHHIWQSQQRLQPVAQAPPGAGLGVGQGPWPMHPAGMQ
UniProt Q12905: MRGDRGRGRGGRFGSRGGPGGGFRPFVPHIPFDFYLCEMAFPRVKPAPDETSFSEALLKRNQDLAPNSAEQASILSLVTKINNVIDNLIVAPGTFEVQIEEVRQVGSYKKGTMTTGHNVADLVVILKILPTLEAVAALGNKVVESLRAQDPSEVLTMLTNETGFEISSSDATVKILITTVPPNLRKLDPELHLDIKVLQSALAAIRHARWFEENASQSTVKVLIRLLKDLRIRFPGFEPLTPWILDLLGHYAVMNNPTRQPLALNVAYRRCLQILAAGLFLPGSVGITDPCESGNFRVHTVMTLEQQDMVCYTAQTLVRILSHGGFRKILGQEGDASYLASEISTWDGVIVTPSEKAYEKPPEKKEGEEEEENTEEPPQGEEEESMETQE

No constants are given. Whether binding was seen depends on the method and setting. In cells and extracts the contact can be indirect. Here binding means that the protein was enriched with, or labelled near, the bait; the list need not be complete.

The experiment addresses IRF5 immunoprecipitated for mass spectrometry (UniProt Q13568). Kind of experiment: affinity purification with mass spectrometry.

With “Interleukin Enhancer Binding Factor 2 (ILF2) (from UniProt Q12905 1-390)”, the binding result was “binds”.
